In the supplement of paper PMC10849652:
The list shows a part of the results.

The chains behind the UniProt entries cited, without tags or fusion partners. Where a name states a change or a piece, a line headed by the entry shows the natural chain unless it says otherwise.
UniProt Q5FBB7: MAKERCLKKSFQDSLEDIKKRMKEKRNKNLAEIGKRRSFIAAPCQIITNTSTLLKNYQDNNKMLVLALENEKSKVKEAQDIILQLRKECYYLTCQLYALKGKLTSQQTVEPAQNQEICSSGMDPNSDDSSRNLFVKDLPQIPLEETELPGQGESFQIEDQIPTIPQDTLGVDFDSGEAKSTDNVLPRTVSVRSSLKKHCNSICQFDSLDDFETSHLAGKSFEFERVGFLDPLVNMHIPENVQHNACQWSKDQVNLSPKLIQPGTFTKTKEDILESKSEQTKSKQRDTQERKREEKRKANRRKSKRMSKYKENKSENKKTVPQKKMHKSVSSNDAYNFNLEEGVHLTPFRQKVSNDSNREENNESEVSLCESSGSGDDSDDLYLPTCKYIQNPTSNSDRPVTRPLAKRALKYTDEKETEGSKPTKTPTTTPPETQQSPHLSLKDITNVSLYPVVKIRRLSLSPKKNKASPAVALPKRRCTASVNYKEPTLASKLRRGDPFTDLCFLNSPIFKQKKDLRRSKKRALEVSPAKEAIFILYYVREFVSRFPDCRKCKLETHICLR
UniProt O95562: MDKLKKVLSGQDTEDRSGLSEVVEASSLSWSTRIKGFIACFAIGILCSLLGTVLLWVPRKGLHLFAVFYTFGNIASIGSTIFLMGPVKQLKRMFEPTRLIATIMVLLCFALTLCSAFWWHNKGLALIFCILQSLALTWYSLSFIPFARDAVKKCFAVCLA
UniProt Q96BD8: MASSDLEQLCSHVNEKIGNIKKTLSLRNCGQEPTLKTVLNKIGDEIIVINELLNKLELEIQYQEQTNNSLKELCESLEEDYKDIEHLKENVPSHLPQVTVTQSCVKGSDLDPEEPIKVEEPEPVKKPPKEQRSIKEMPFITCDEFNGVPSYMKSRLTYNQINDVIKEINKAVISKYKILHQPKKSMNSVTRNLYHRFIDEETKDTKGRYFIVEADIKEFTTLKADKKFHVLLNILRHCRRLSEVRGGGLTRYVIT
UniProt P29353: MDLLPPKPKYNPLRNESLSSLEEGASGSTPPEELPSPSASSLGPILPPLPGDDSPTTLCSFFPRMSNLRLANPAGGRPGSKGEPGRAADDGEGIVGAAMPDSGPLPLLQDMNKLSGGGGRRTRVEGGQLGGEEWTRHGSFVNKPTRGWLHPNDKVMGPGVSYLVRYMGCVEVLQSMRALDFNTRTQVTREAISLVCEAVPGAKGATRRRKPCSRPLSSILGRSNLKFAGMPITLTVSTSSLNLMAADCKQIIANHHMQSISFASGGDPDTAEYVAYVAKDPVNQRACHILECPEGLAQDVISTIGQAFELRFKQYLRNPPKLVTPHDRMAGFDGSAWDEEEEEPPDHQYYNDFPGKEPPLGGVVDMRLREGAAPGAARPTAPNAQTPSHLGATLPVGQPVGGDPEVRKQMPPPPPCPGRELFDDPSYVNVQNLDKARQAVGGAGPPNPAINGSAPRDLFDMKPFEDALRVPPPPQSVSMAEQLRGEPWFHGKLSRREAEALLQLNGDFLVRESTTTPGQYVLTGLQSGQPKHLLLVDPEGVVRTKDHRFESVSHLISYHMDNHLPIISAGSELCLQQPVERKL
UniProt Q587I9: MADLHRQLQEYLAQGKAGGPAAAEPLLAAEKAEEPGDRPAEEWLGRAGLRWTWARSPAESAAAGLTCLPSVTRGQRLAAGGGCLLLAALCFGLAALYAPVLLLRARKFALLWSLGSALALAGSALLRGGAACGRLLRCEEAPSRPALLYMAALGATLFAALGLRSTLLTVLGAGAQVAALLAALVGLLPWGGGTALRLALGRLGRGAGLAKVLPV
UniProt Q9UBV2: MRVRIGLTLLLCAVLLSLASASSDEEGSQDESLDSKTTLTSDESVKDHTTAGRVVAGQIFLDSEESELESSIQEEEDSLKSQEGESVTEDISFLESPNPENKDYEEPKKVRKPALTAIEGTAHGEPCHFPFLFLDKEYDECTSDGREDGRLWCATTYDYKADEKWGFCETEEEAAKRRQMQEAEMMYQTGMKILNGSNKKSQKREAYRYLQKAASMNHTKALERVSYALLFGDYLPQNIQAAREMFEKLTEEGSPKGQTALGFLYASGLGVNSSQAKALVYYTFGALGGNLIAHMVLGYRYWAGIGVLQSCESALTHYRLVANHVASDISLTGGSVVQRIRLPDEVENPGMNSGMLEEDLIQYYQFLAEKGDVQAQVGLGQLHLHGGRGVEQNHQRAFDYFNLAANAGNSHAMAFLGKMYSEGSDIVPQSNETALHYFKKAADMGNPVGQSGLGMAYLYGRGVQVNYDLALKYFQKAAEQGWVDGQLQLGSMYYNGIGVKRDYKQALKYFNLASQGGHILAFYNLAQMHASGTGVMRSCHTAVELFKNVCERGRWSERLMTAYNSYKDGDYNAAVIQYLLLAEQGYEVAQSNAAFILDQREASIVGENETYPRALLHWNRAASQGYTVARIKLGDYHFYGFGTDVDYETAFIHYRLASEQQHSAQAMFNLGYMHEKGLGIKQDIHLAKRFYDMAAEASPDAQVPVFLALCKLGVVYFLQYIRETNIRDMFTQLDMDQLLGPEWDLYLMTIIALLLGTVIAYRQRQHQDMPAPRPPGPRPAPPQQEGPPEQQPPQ
UniProt A0MZ66, whole entry, looked up: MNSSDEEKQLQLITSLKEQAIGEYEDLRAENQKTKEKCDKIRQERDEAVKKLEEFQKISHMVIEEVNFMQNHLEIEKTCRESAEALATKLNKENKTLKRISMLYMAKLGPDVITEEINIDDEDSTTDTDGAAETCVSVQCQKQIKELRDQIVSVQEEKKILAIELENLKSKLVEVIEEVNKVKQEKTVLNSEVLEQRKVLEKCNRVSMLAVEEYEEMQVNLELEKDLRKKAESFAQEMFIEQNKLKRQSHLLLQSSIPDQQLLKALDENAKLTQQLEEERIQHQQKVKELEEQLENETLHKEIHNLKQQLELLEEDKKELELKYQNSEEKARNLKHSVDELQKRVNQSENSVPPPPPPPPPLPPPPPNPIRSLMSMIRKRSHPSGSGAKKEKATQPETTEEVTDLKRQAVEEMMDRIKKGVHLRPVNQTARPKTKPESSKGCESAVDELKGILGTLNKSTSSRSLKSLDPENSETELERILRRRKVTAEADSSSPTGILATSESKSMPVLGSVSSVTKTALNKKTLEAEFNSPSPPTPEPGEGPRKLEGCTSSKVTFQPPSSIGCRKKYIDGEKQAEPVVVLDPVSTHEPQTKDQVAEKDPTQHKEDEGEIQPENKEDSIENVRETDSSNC
UniProt O60613, whole entry, looked up: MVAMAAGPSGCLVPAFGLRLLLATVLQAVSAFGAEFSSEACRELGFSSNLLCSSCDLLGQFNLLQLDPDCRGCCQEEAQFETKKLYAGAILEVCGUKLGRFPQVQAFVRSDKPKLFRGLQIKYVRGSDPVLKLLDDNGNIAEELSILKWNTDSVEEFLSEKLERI
UniProt Q96ST3: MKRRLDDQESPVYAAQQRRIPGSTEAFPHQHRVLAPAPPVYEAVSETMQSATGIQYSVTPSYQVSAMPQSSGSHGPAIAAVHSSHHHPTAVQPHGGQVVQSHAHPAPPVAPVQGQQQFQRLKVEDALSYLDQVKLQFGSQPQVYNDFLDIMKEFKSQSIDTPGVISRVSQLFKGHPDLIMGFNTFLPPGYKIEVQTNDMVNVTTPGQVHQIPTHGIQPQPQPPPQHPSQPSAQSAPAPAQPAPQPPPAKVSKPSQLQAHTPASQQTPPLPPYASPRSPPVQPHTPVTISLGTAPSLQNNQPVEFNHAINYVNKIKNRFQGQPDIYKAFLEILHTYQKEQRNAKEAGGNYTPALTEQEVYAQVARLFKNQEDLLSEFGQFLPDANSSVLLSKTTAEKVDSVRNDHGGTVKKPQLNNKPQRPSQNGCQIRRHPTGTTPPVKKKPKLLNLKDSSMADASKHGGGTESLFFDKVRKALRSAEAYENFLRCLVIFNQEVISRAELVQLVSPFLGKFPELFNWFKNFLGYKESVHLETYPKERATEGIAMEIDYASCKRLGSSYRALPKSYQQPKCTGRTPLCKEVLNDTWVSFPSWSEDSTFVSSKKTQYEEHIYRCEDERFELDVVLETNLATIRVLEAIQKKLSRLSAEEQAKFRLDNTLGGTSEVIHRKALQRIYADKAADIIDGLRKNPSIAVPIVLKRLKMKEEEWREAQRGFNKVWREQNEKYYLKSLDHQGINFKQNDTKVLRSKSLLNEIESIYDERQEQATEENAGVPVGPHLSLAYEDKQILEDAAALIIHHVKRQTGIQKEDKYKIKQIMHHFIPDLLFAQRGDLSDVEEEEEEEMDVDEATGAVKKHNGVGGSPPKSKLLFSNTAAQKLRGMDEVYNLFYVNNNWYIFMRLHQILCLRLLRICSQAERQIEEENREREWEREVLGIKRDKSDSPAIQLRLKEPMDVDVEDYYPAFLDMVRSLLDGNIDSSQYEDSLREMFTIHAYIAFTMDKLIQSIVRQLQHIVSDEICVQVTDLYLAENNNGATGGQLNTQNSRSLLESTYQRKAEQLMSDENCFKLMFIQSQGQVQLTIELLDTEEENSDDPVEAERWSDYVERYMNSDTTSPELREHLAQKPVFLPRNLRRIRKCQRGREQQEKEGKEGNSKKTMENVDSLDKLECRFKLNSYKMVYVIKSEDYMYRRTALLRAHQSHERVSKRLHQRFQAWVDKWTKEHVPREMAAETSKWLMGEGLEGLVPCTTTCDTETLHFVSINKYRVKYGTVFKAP
UniProt Q8NC51: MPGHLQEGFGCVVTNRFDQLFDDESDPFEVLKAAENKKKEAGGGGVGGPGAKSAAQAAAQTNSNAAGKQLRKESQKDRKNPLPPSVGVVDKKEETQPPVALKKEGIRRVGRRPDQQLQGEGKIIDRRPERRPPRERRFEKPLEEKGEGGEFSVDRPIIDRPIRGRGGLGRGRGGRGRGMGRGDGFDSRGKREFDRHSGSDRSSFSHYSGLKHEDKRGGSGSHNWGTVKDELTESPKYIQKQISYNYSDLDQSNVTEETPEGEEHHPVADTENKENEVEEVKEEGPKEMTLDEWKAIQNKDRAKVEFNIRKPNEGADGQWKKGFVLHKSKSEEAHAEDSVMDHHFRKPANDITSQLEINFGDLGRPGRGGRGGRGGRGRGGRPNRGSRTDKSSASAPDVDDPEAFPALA
UniProt Q96JX3: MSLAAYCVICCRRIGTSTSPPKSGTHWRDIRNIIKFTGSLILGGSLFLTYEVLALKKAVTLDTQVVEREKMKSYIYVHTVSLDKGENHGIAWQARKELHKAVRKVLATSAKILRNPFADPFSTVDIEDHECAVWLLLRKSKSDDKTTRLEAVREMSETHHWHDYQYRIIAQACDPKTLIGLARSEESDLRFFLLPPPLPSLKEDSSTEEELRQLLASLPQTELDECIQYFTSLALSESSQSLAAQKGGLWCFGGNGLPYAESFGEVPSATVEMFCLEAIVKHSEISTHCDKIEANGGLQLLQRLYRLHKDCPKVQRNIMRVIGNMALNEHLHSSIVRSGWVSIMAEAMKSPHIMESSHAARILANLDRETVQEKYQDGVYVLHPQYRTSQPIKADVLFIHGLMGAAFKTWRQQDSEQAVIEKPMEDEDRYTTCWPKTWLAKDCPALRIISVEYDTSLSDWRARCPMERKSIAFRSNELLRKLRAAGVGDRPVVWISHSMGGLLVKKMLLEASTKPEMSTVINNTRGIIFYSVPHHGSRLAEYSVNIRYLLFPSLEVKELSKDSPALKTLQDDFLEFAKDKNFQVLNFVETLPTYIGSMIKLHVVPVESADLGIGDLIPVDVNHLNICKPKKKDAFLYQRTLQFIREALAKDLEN
UniProt P61619, whole entry, looked up: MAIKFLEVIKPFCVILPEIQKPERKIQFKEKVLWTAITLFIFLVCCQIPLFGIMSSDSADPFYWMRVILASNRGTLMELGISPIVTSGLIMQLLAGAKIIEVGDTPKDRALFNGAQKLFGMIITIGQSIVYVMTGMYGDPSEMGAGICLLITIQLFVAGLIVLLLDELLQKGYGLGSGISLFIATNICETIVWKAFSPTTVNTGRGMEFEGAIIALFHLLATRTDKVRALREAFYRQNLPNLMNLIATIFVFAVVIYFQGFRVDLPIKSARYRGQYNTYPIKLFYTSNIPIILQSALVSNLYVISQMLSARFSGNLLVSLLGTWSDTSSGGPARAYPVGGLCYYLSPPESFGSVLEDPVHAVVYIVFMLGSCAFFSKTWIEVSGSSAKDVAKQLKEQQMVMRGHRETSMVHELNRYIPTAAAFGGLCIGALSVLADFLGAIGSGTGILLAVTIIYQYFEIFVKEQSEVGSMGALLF
UniProt Q6P4A7: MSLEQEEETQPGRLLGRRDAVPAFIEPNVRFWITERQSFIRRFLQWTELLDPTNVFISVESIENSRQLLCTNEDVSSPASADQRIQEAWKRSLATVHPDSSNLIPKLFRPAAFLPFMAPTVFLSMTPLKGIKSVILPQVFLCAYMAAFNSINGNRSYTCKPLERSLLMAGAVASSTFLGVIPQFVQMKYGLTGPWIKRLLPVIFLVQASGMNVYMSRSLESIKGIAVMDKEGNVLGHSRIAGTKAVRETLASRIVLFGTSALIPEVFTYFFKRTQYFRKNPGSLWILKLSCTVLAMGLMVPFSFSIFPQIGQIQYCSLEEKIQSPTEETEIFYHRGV

Compound: c1cn2cc(-c3ccc4cn[nH]c4c3)nc(Nc3ccc(N4CCOCC4)cc3)c2n1 [entospletinib]
Experiment: log2 fold change, soluble protein after heating vs DMSO (PISA); higher = thermal stabilisation; K562 cells, 10 uM, 30 min; active = over 0.2 and 3.5 SD of the protein, either way, in both replicates (recomputed)
Procedure, shortened: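 Soluble protein was quantified by TMTpro 16plex LC-MS/MS after channel sums were equalised. It was obtained as the supernatant after 21,000xg for 90 min from pooled aliquots of K562 cells (2×10^6 cells/mL, 10 μM compound, 30 min) heated for 3 min across 48°C-58°C and extracted in PBS with 0.5% NP-40 at 4°C. Thermal stability values are relative to control samples and come from duplicates. They are given as log2 fold changes.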

log2 fold change, inactive:
SGO1 (UniProt Q5FBB7) -0.036, SFT2D2 (UniProt O95562) 0.129, SKA1 (UniProt Q96BD8) 0.259, SHC1 isoform 6 (UniProt P29353) -0.016, SEPTIN11 isoform 2 (UniProt Q9NVA2) 0.001, SGTA (UniProt O43765) 0, SF3B4 (UniProt Q15427) -0.09, SFT2D3 (UniProt Q587I9) 0.017, SERPINA3 (UniProt P01011) -0.027, SEL1L (UniProt Q9UBV2) 0.083, SIRT1 (UniProt Q96EB6) -0.005, SHTN1 isoform 3 (UniProt A0MZ66) 0.062, SEPHS1 (UniProt P49903) -0.027, SIL1 (UniProt Q9H173) -0.015, SEPTIN4 isoform 4 (UniProt O43236) -0.217, SGMS1 (UniProt Q86VZ5) 0.024, SH3BP1 (UniProt Q9Y3L3) -0.007, SH3BP5 (UniProt O60239) 0.023, SELENBP1 isoform 4 (UniProt Q13228) -0.01, SELENOF (UniProt O60613) -0.062, SHMT2 (UniProt P34897) -0.006, SEL1L3 (UniProt Q68CR1) 0.015, SIN3A (UniProt Q96ST3) -0.028, SEPTIN10 isoform 2 (UniProt Q9P0V9) -0.01, SGPP1 (UniProt Q9BX95) -0.216, SERBP1 isoform 3 (UniProt Q8NC51) 0.014, SET isoform 2 (UniProt Q01105) 0.049, SFN (UniProt P31947) -0.014, SELENOT (UniProt P62341) -0.01, SERAC1 (UniProt Q96JX3) 0.159, SEC62 (UniProt Q99442) 0.037, SEC61A1 (UniProt P61619) 0.051, SIRT5 (UniProt Q9NXA8) 0.016, SF3A1 (UniProt Q15459) 0.011, SFXN4 isoform 3 (UniProt Q6P4A7) -0.123, SEC61A2 (UniProt Q9H9S3) -0.007
